Measurements: patent publication US20170095417A1, “Percutaneous Implement and Method for Manufacturing” (priority 2015, published 2017)

Conditions: rat, in vivo

Lidocaine detected in the plasma: 0.003 to 0.01 mg
Compound: CCN(CC)CC(=O)Nc1c(C)cccc1C [Lidocaine]
